The whole screen tested about 390,000 compounds, of which about 610 (0.16%) were called active. The inconclusive results got no clear call from the source; some entries with a clear call stand among them for comparison. Calls follow the shape of the dose curve; as a rule, active = well fitted inhibition curve with a large enough effect; inconclusive = small, poorly fitted or top-dose-only effect, or effect the other way, or another doubt; inactive = no such curve, though single readings can be large or run the other way. A potency beside an inconclusive call is a rough fit, not a confirmed value.
Assay: Nrf2 qHTS screen for inhibitors: counterscreen for cytotoxicity
Conditions: A549 ARE-Fluc cells, CellTiter-Fluor viability, 18-24 h; series mostly up to 46 µM
How it was run: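 A549 ARE-Fluc cells in 5% FBS OPTI-MEM, 5000 cells/well, rested 2 h then exposed to compounds in concentration-response for 18-24 h at 37 °C. Viability by CellTiter-Fluor fluorescence (Ex 405/Em 525) after 30 min; luciferase luminescence (BugLite, 15 min, RT) read afterwards.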
Potency is read from the fitted curve at half-maximal effect.

| Structure (SMILES) | Potency |
| --- | --- |
| O=[N+]([O-])c1cccc(-c2cc(-c3cc(Br)ccc3O)[nH]n2)c1 | inconclusive: 23.1 µM [falling, single point] |
| COc1ccc(-n2ncc3c(N4CCN(Cc5ccccc5)CC4)ncnc32)cc1 | inconclusive: 29.1 µM [falling, single point] |
| CN1CCN(C(=O)CCN2C(=O)/C(=C/c3ccccc3Cl)SC2=S)CC1 | active: 20.6 µM |
| CN(C)c1ccc(C(CNS(=O)(=O)c2ccc(F)c(F)c2)c2c[nH]c3ccccc23)cc1 (stereo not given) | inconclusive: 29.1 µM [falling, single point] |
| CSc1ccc(/C=N/Nc2cccc(C(=O)O)c2)cc1 | inactive |
| COc1cccc(NC(=O)N(Cc2cn(C)c3ccccc23)C2CCCCC2)c1 | inconclusive: 14.6 µM [falling, single point] |
| COc1cccc(NC(=O)C2CC(=O)N(C)C(=Nc3cccc(F)c3)S2)c1 (stereo not given) | inconclusive: 32.6 µM [falling, single point] |
| CCCCC(CC)Cn1c(N)c(C#N)c2nc3ccccc3nc21 (stereo not given) | inactive |
| COc1ccc(OC)c(NC(=O)CSc2nnnn2-c2ccc3c(c2)OCO3)c1 | inconclusive: 32.6 µM [falling, partial curve, poor fit] |
| O=C(Nc1cccc(Br)c1)c1cc(S(=O)(=O)N2CCCCC2)c[nH]1 | inactive |
| CCOC(=O)/C(=C/c1ccc(OC(F)F)cc1)C1=Nn2c(nnc2-c2ccc(Cl)cc2)SC1 | inconclusive: 29.1 µM [falling, single point] |
| CC12C=CC(=O)C=C1CCC1C2CCC2(C)C(C(=O)CO)CCC12 (stereo not given) | inactive |
| Cc1csc2nc(COc3ccc(NC(=O)c4ccccc4F)cc3)cc(=O)n12 | inactive |
| CSc1cc2c(s1)c1cnn(Cc3ccccc3F)c(=O)c1n2C | inactive |
| COc1cccc2[nH]c3c(N4CCC5(CC4)OCCO5)ncnc3c12 | inactive |
| Cc1nc2c(=O)n(C)c(=O)n(C)c2nc1Cl | inconclusive: 29.1 µM [falling, single point] |
| Cc1ccc(C(C)C)c(OCC(=O)Nc2ccc3c(c2)nc(CCNC(=O)c2ccco2)n3C)c1 | inactive |
| CSc1ncccc1C(=O)OCc1nc2ccsc2c(=O)[nH]1 | inactive |
| O=C1c2ccccc2NC2(CCCC2)N1N=C1CCCC1 | inconclusive: 29.1 µM [activator, single point] |
| O=C(Nc1ccc(S(=O)(=O)N2CCOCC2)cc1)c1ccc([N+](=O)[O-])cc1Cl | inconclusive: 1.46 µM [activator, full curve, poor fit] |
| CC(C)C[C@@H](CO)N(Cc1ccccc1)S(=O)(=O)N(Cc1ccccc1)[C@H](CO)CC(C)C | inconclusive: 29.1 µM [falling, single point] |
| CCC(=O)c1cn(CC(=O)Nc2c(C)cccc2C)c2ccccc12 | inactive |
| CN(C)c1ccc(/C=C(\Cl)c2nc3ccccc3s2)cc1 | inconclusive: 18.4 µM [falling, partial curve, poor fit] |

| Structure (SMILES) | Potency |
| --- | --- |
| O=C(NCCCN1CCN(c2cccc(Cl)c2)CC1)C1(S(=O)(=O)c2ccc(Cl)cc2)CC1 | inconclusive: 18.4 µM [falling, single point] |
| COc1ccccc1NC(=O)CSc1nnc(COc2ccc(Cl)cc2)n1Cc1ccco1 | inconclusive: 29.1 µM [falling, single point] |
| COc1ccccc1CNC(=O)[C@H](C)N1C(=O)N2CCc3c([nH]c4ccccc34)[C@@]2(C)C1=O | inconclusive: 29.1 µM [falling, single point] |
| CN(C)c1ccc(O)c2c1CC1CC3[C@@H](N(C)C)C(=O)C(C(N)=O)C(=O)[C@]3(O)C(=O)C1C2=O (stereo not given in full) | inconclusive: 29.1 µM [falling, single point] |
| CC1(C)OC(=O)C(=NNc2ccccc2C(=O)O)C(=O)O1 | inconclusive: 20.6 µM [falling, single point] |
| Cc1cc(C)cc(NC(=O)CN2C(=O)c3ccccc3Sc3ccc(C(=O)N4CCCC4)cc32)c1 | inactive |
| COc1cc(OC)c(OC)cc1CNC(=O)c1cccc(S(=O)(=O)N2CCc3ccccc3C2)c1 | inactive |
| Cc1ccc(-n2nnnc2SCn2nnc3ccccc3c2=O)c(C)c1 | inconclusive: 20.6 µM [falling, single point] |
| COc1ccc(OC)c(C2CC(=O)Nc3c2c(=O)n(C)c2ncnn32)c1 (stereo not given) | inconclusive: 6.51 µM [falling, partial curve] |
| COc1ccc(S(=O)(=O)N2CCN(C(=O)c3ccco3)CC2)cc1C(C)(C)C | inactive |
| O=C(COC(=O)c1cc([N+](=O)[O-])ccc1N1CCOCC1)c1ccc(F)cc1 | inconclusive: 23.1 µM [falling, partial curve, poor fit] |
| O=C(CCCn1c(=O)c2ccccc2n(Cc2ccccc2)c1=O)NCc1ccco1 | inactive |
| O=C(Nc1ccc(Cl)c(Cl)c1)N1CCSCC1 | inactive |
| Fc1cc(F)c2nc(Nc3nc4cc5c(cc4s3)OCO5)sc2c1 | inactive |
| Cc1cc(-c2ccc(S(=O)(=O)Nc3cc(Cl)ccc3C)s2)on1 | inactive |
| CC(C)=CCC/C(C)=C/CNC(=O)C[C@H]1C[C@H](C(=O)N2CCCCC2)[C@@]2(CCc3ccccc3)c3[nH]c4cc(CCC(=O)N(C)C)ccc4c3CCN2C1=O | inconclusive: 20.6 µM [falling, single point] |
| COCCn1c(SCC(=O)Nc2cccc(C)c2C)nc2c(oc3ccccc32)c1=O | inconclusive: 5.8 µM [falling, partial curve, poor fit] |
| Cc1ccc(Cl)cc1N1CCN(C(=O)c2ccc(CS(=O)(=O)c3ccc(Br)cc3)o2)CC1 | inconclusive: 18.4 µM [falling, partial curve, poor fit] |
| CCCCCC(=O)Nc1ccc(S(=O)(=O)Nc2nccnc2OC)cc1 | inactive |
| CCOC(=O)C1=C(c2ccccc2)NC(SCC(=O)NC2CCCCC2)=C(C#N)C1c1ccco1 (stereo not given) | inactive |
| CCc1ccccc1NC(=O)CSc1nc2ncccc2o1 | inactive |
| Cc1ccc(S(=O)(=O)NC(N)=NCCC[C@@H](NC(=O)CNC(=O)c2ccccc2)C(=O)Nc2cc(C(F)(F)F)ccc2Cl)cc1 | inactive |

Quoted from the listing:
O=C(NCCCN1CCN(c2cccc(Cl)c2)CC1)C1(S(=O)(=O)c2ccc(Cl)cc2)CC1 – Potency: inconclusive: 18.4 µM [falling, single point]
CCOC(=O)C1=C(c2ccccc2)NC(SCC(=O)NC2CCCCC2)=C(C#N)C1c1ccco1 (stereo not given) – Potency: inactive

Reference: PubChem BioAssay AID504648 (National Center for Advancing Translational Sciences (NCATS), 2011)
